# Data reported in the supplement of paper PMC10849652.
# Chains of the proteins cited; added tags and fusions are not shown. Lines headed by an entry give the natural chain unless they say otherwise; changes in a name come on top.
# UniProt A1A5C7: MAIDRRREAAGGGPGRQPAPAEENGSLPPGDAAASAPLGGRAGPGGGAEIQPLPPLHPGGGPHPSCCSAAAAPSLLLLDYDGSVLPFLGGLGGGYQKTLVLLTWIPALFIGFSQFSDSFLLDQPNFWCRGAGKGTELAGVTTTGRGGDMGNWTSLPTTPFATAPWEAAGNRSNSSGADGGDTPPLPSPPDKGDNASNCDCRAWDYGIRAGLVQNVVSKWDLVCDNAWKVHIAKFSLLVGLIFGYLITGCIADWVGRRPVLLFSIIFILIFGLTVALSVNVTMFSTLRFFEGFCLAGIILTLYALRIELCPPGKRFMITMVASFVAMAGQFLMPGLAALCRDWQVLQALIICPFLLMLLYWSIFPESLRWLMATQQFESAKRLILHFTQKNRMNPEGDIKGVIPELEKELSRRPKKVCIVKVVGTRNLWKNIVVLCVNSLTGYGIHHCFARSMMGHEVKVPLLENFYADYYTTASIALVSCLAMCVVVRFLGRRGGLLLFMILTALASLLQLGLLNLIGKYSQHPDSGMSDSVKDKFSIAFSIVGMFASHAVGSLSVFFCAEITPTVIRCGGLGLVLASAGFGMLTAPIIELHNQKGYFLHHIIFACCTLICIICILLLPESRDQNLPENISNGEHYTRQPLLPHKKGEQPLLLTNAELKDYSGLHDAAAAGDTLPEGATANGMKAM
# UniProt Q96H78: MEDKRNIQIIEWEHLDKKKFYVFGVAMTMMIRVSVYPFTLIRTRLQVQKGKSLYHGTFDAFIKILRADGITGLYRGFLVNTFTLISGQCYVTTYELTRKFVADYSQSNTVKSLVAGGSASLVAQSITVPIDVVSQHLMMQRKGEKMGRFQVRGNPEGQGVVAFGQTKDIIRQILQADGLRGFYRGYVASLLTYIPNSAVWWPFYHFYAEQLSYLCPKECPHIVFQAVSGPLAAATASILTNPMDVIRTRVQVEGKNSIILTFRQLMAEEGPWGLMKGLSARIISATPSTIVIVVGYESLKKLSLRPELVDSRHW
# UniProt Q9H1N7: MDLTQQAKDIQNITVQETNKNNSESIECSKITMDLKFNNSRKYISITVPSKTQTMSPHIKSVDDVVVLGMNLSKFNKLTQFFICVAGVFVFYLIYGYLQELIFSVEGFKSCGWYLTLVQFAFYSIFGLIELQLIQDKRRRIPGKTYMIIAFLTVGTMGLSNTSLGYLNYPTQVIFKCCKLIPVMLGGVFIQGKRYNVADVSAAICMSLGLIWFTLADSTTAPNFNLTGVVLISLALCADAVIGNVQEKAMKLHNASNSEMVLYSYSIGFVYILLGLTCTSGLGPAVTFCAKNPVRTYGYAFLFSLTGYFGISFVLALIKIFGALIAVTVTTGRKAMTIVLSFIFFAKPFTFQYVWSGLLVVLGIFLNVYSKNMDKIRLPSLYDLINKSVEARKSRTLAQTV
# UniProt Q8IXU6: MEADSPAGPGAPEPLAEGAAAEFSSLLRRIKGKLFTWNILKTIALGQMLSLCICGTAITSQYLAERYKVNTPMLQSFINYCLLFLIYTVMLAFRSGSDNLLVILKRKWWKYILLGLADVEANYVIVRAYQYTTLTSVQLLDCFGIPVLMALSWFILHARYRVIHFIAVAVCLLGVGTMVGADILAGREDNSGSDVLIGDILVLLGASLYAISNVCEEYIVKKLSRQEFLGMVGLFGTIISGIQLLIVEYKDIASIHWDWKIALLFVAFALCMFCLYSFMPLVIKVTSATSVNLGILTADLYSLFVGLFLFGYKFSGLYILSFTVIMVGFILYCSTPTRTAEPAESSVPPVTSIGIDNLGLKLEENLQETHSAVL
# UniProt Q14542: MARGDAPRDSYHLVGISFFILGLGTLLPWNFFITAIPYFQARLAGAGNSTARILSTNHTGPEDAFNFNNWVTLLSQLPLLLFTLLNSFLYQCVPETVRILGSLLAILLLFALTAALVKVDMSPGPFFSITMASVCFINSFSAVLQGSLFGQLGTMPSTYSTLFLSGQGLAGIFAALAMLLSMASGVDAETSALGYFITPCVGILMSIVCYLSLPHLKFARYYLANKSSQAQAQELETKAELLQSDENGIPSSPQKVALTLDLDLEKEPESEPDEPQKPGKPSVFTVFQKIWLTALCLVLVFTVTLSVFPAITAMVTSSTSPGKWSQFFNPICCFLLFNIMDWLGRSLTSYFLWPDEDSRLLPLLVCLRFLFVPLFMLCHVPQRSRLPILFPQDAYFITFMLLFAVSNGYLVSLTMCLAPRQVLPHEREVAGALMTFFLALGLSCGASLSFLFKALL
# UniProt O76082: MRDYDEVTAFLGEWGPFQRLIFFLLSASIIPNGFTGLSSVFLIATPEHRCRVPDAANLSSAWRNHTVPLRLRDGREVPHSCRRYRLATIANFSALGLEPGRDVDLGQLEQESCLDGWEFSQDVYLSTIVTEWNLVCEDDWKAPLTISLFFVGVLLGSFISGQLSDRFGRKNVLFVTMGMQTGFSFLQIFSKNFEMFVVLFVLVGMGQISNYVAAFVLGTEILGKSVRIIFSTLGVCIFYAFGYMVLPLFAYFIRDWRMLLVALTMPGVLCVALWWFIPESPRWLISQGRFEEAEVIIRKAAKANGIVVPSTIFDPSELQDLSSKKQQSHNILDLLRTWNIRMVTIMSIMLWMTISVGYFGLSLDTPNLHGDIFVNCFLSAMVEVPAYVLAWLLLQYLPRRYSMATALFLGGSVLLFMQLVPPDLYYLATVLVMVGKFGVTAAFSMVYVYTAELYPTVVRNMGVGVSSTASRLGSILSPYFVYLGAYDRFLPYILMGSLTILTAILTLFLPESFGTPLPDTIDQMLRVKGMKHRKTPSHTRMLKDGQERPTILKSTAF
# UniProt Q9HAB3: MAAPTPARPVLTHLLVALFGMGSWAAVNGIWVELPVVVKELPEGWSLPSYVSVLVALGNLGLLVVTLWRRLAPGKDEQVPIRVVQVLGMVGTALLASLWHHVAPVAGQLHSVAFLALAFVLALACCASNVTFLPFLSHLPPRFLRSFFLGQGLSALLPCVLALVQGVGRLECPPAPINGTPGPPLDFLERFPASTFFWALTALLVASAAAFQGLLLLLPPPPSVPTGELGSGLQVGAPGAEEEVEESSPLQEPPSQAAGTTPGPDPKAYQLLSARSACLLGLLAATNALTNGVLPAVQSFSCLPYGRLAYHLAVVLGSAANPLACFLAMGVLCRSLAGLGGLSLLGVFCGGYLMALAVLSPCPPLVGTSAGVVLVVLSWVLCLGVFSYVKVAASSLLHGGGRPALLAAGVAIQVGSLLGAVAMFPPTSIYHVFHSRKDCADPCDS
# UniProt P30825: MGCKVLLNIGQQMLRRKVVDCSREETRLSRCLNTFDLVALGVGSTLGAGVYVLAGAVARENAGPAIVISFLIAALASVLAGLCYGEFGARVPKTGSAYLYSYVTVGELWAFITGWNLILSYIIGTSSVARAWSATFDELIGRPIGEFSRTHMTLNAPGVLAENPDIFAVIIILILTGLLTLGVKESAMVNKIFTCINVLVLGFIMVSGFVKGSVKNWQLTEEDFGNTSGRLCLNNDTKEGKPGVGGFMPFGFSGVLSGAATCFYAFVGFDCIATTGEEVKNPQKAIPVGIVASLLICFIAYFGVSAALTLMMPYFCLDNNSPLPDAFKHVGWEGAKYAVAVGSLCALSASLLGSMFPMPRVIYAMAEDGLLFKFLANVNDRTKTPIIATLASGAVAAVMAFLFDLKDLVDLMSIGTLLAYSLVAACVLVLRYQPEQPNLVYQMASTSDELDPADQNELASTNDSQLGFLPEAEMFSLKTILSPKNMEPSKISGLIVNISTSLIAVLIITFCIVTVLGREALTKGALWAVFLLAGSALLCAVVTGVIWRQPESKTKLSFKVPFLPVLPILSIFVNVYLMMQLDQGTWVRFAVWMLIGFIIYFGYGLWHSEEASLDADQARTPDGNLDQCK
# UniProt Q9NY26: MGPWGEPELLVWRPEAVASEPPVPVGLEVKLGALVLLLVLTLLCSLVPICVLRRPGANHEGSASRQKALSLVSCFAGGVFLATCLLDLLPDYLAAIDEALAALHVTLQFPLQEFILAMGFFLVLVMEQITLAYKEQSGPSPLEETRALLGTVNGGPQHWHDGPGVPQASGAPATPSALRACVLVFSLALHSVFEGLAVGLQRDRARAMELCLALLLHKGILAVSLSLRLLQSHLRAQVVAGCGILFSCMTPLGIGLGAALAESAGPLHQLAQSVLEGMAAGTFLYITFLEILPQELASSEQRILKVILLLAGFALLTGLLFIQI
# UniProt Q9Y289: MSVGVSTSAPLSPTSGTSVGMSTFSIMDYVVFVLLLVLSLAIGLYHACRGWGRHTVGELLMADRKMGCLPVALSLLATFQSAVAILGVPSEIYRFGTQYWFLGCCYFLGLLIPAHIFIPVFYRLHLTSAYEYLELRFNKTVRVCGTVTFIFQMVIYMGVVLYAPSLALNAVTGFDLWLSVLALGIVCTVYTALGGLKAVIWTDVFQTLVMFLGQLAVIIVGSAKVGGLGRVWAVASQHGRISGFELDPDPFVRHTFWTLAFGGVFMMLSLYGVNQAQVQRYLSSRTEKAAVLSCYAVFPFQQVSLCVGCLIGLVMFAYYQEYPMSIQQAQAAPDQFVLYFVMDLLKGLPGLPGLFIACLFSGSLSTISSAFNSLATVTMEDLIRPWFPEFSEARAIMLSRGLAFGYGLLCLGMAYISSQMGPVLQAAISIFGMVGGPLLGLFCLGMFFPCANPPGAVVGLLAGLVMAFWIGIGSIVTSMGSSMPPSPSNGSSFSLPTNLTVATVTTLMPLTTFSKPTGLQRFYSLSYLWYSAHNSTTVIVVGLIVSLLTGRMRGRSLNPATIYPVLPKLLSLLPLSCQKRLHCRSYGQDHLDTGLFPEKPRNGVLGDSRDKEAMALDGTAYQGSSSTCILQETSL
# UniProt Q5SVS4: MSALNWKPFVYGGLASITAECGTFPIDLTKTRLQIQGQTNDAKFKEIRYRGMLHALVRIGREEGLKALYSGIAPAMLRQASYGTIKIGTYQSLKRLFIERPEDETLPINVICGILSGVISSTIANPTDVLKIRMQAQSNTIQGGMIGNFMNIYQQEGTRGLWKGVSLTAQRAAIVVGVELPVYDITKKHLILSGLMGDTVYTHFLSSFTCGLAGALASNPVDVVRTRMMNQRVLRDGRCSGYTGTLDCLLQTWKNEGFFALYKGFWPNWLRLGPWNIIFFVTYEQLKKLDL
# UniProt Q96K37: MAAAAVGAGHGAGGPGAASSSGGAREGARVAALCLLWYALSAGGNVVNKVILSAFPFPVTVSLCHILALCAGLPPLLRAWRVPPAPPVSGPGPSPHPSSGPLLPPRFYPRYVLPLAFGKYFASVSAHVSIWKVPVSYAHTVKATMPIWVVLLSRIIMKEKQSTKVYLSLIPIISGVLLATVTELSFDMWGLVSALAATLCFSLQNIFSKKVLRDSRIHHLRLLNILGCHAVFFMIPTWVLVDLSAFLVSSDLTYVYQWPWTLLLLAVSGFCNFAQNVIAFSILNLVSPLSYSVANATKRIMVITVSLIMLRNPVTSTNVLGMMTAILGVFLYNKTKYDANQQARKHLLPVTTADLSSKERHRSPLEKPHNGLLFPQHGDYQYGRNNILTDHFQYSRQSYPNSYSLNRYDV
# UniProt Q9H2D1: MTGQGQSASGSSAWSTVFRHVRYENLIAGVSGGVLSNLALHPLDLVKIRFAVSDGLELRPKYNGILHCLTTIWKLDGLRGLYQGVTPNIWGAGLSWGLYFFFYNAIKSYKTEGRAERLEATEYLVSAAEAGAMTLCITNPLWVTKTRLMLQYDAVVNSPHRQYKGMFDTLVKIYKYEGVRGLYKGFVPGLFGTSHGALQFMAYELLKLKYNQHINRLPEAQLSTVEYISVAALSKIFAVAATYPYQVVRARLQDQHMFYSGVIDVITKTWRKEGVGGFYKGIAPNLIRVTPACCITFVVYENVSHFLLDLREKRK
# UniProt P14672: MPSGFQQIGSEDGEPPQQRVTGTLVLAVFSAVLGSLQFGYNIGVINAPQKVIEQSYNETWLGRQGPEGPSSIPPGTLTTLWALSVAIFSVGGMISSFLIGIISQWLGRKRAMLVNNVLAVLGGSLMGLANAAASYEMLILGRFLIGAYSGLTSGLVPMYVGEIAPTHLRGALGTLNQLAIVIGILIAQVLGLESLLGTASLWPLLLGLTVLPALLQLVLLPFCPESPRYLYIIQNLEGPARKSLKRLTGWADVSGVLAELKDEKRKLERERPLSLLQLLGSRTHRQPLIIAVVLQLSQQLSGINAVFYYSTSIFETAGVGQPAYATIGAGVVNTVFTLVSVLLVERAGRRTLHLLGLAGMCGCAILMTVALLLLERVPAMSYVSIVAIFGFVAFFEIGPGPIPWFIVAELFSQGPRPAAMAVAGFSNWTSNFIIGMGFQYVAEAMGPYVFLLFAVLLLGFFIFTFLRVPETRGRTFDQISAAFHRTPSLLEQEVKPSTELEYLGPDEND
# UniProt O15431: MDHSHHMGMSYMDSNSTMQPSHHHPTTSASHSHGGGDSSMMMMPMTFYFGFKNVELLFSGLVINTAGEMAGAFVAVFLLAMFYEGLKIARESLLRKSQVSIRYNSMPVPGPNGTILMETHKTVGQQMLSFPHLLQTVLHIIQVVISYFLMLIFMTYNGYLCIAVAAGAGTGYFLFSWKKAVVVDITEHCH
# Some of the results follow.
# Compound: CS(=O)(=O)CCNCc1ccc(-c2ccc3ncnc(Nc4ccc(OCc5cccc(F)c5)c(Cl)c4)c3c2)o1 [lapatinib]
# Assay: log2 fold change, soluble protein after heating vs DMSO (PISA); higher = thermal stabilisation; K562 lysate, 10 uM; active = over 0.2 and 3.5 SD of the protein, either way, in both replicates (recomputed)
# Outline: (§1)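 To prepare the extract, K562 pellets were dounce-homogenised in PBS pH 7.4 with 1 mM MgCl2, giving crude material at 1 mg/mL protein. This was treated with 10 μM compound for 30 min, then heated in aliquots for 3 min over 48°C-58°C before pooling and addition of NP-40 to 0.5% at 4°C. Centrifugation at 21,000xg for 90 min left soluble protein in the supernatant, which TMTpro 16plex LC-MS/MS quantified with equalised channel sums. Results are log-two fold changes in thermal stability compared with solvent controls, from duplicates.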
row,Target,log2 fold change
1,SLC4A1 (UniProt P02730),inactive: -0.097
2,SLC45A4 isoform 3 (UniProt Q5BKX6),inactive: -0.006
3,SLC35C1 (UniProt Q96A29),inactive: -0.005
4,SLC39A14 (UniProt Q15043),inactive: 0.018
5,SLC7A11 (UniProt Q9UPY5),inactive: 0.003
6,SLC5A3 (UniProt P53794),inactive: 0.008
7,SLC22A23 (UniProt A1A5C7),inactive: -0.13
8,SLC25A33 (UniProt Q9BSK2),inactive: -0.019
9,SLC25A44 (UniProt Q96H78),inactive: -0.031
10,SLC25A26 (UniProt Q70HW3),inactive: 0.086
11,SLC35B4 (UniProt Q969S0),inactive: -0.061
12,SLC25A17 (UniProt O43808),inactive: -0.033
13,SLC35B3 (UniProt Q9H1N7),inactive: 0.07
14,SLC25A51 (UniProt Q9H1U9),inactive: 0.102
15,SLC35F2 (UniProt Q8IXU6),inactive: -0.019
16,SLC26A2 (UniProt P50443),inactive: -0.081
17,SLC48A1 (UniProt Q6P1K1),inactive: -0.002
18,SLC43A1 (UniProt O75387),inactive: 0.033
19,SLC29A2 (UniProt Q14542),inactive: -0.006
20,SLC22A5 isoform 3 (UniProt O76082),inactive: -0.042

row,Target,log2 fold change
1,SLC3A2 (UniProt F5H867),inactive: -0.083
2,SLC9A6 isoform 2 (UniProt Q92581),inactive: 0.003
3,SLC3A2 (UniProt F5GZS6),inactive: -0.008
4,SLC52A2 (UniProt Q9HAB3),inactive: -0.194
5,SLC7A1 (UniProt P30825),inactive: 0.008
6,SLC7A6 (UniProt Q92536),inactive: 0.017
7,SLC39A1 (UniProt Q9NY26),inactive: -0.061
8,SLC66A1 (UniProt Q6ZP29),inactive: -0.046
9,SLC5A6 (UniProt Q9Y289),inactive: -0.018
10,SLC25A30 (UniProt Q5SVS4),inactive: -0.029
11,SLC35E1 (UniProt Q96K37),inactive: -0.048
12,SLC25A32 (UniProt Q9H2D1),inactive: -0.032
13,SLC9A8 isoform 2 (UniProt Q9Y2E8),inactive: 0.025
14,SLC2A4 (UniProt P14672),inactive: 0.041
15,SLC30A6 isoform 2 (UniProt Q6NXT4),inactive: 0.115
16,SLC25A46 (UniProt Q96AG3),inactive: -0.011
17,SLC31A1 (UniProt O15431),inactive: 0.224
18,SLC39A7 (UniProt Q92504),inactive: -0.009
19,SLC9A7 (UniProt Q96T83),inactive: -0.056

# Compound: CS(=O)(=O)N1CCN(Cc2cc3nc(-c4cccc5[nH]ncc45)nc(N4CCOCC4)c3s2)CC1 [pictilisib]
# Assay: as above
# Outline: as §1
row,Target,log2 fold change
1,SLC4A1 (UniProt P02730),inactive: 0.023
2,SLC45A4 isoform 3 (UniProt Q5BKX6),inactive: -0.072
3,SLC35C1 (UniProt Q96A29),inactive: 0
4,SLC39A14 (UniProt Q15043),inactive: 0.01
5,SLC7A11 (UniProt Q9UPY5),inactive: -0.042
6,SLC5A3 (UniProt P53794),inactive: -0.087
7,SLC22A23 (UniProt A1A5C7),inactive: -0.011
8,SLC25A33 (UniProt Q9BSK2),inactive: 0.019
9,SLC25A44 (UniProt Q96H78),inactive: -0.014
10,SLC25A26 (UniProt Q70HW3),inactive: -0.009
11,SLC35B4 (UniProt Q969S0),inactive: 0.037
12,SLC25A17 (UniProt O43808),inactive: 0.015
13,SLC35B3 (UniProt Q9H1N7),inactive: -0.007
14,SLC25A51 (UniProt Q9H1U9),inactive: 0.006
15,SLC35F2 (UniProt Q8IXU6),inactive: -0.023
16,SLC26A2 (UniProt P50443),inactive: -0.119
17,SLC48A1 (UniProt Q6P1K1),inactive: 0.039
18,SLC43A1 (UniProt O75387),inactive: 0.088
19,SLC29A2 (UniProt Q14542),inactive: 0.04
20,SLC22A5 isoform 3 (UniProt O76082),inactive: -0.104

row,Target,log2 fold change
1,SLC3A2 (UniProt F5H867),inactive: -0.056
2,SLC9A6 isoform 2 (UniProt Q92581),inactive: -0.048
3,SLC3A2 (UniProt F5GZS6),inactive: 0.045
4,SLC52A2 (UniProt Q9HAB3),inactive: -0.008
5,SLC7A1 (UniProt P30825),inactive: -0.01
6,SLC7A6 (UniProt Q92536),inactive: -0.002
7,SLC39A1 (UniProt Q9NY26),inactive: 0.054
8,SLC66A1 (UniProt Q6ZP29),inactive: -0.015
9,SLC5A6 (UniProt Q9Y289),inactive: -0.062
10,SLC25A30 (UniProt Q5SVS4),inactive: -0.037
11,SLC35E1 (UniProt Q96K37),inactive: 0.061
12,SLC25A32 (UniProt Q9H2D1),inactive: -0.005
13,SLC9A8 isoform 2 (UniProt Q9Y2E8),inactive: 0.01
14,SLC2A4 (UniProt P14672),inactive: -0.044
15,SLC30A6 isoform 2 (UniProt Q6NXT4),inactive: -0.027
16,SLC25A46 (UniProt Q96AG3),inactive: -0.01
17,SLC31A1 (UniProt O15431),inactive: -0.052
18,SLC39A7 (UniProt Q92504),inactive: -0.012
19,SLC9A7 (UniProt Q96T83),inactive: -0.254
